Results as given in PMC11144933.
No constants are given. Whether binding was seen depends on the method and setting. In cells and extracts the contact can be indirect. Some entries that bind do so weakly or less than the wild type.

The chains behind the UniProt entries cited, without tags or fusion partners. Residues count along the entry.
UniProt P20029, residues 20-655: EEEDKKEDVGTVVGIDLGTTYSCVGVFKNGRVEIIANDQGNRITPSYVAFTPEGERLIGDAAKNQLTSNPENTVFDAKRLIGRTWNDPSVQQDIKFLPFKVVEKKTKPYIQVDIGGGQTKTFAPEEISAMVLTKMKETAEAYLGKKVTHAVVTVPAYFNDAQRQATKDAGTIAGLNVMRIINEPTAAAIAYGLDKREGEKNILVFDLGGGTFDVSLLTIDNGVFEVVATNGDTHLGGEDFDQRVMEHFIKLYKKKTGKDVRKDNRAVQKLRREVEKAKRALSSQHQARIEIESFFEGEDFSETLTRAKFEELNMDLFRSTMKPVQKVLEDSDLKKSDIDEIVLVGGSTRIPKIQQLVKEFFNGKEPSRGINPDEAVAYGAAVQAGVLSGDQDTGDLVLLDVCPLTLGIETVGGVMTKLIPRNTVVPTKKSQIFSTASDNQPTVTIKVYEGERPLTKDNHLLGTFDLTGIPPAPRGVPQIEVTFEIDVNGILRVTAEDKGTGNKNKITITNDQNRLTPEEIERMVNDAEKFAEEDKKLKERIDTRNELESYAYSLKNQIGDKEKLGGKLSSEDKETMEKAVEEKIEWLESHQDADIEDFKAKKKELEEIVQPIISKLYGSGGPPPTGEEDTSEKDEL

Molecular target: T1, epithelial sodium channel alpha subunit (α-ENaC) (mouse (endogenous in MIN6)) (UniProt Q61180)
T1 sequence: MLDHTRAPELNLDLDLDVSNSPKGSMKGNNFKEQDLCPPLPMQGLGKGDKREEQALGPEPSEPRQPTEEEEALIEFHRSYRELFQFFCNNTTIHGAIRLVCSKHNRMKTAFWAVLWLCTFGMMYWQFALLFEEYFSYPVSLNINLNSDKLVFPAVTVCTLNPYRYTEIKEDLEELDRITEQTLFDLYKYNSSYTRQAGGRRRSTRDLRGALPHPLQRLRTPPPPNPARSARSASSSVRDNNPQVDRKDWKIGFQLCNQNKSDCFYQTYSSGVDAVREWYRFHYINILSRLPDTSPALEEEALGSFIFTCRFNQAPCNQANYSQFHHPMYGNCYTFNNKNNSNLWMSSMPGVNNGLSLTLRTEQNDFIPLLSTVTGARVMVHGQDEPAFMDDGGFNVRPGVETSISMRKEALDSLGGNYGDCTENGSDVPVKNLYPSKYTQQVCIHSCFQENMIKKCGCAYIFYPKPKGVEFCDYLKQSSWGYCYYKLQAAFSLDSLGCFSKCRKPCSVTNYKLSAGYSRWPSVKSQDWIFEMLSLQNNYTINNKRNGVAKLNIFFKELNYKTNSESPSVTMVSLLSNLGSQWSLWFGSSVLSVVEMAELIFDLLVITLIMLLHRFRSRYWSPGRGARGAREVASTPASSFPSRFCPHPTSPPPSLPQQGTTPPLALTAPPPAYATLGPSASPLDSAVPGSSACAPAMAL
Assay: co-IP; MIN6 lysate in NP40 with 10 mmol/L Tris-HCl and 10 mmol/L NaCl; 1 mg of protein, target antibody at 4 ℃ overnight, protein A beads 2 to 6 h; Western blotting

binding: binds weakly
Substance: 78 kDa glucose-regulated protein (from UniProt P20029 20-655)
